± gives the standard deviation of the averaged measurements. Only a part is listed here, and it is no random draw.
Compound: Nc1ncnc2c1ncn2[C@@H]1O[C@H](COP(=O)(O)OP(=O)(O)NP(=O)(O)O)[C@@H](O)[C@H]1O [adenylyl imidodiphosphate]
Assay: NP40-soluble protein abundance relative to vehicle (solubility fold change) (ratio); higher = more soluble protein in presence of AMP-PNP
Summary of the method: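 In three independent experiments, Jurkat crude lysate made by Dounce homogenisation was treated for 10 min at room temperature and then 3 min at 37 °C with eight concentrations ranging from 0.1 to 10 mM. It was then solubilised with 0.8% NP40 plus benzonase for 60 min at 4 °C and ultracentrifuged. The supernatant was TMT-labelled for LC-MS/MS, and each value is the fold change against the detergent-processed vehicle for the same replicate, using vsn-normalised intensities.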

The chains behind the UniProt entries cited, without tags or fusion partners. Where a name states a change or a piece, a line headed by the entry shows the natural chain unless it says otherwise.
UniProt O75843: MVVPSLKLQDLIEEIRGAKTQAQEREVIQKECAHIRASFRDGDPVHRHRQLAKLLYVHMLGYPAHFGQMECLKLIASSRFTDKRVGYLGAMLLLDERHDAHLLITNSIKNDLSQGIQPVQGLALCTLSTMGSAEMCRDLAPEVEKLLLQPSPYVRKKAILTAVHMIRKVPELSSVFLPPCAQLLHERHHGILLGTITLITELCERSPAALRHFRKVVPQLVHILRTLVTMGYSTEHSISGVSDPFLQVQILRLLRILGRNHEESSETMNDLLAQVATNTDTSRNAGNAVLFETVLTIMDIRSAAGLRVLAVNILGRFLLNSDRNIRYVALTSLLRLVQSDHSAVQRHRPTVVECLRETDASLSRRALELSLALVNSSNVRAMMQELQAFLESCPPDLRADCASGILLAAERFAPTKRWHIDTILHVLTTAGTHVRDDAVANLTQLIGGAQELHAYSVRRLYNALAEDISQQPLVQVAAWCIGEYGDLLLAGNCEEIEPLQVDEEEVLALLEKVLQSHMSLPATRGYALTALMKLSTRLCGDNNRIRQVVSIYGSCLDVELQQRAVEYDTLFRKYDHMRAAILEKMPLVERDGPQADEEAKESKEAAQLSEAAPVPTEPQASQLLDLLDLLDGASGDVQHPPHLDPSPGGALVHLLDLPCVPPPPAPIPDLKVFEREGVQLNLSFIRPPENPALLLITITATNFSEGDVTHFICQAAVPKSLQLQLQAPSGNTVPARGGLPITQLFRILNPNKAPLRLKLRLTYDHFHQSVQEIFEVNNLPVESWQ
UniProt P67812: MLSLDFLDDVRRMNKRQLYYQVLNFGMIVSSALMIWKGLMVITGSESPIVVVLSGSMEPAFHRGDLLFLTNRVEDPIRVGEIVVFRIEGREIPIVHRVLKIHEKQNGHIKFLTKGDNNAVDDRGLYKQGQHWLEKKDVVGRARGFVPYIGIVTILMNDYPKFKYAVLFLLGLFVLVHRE
UniProt P02686, whole entry: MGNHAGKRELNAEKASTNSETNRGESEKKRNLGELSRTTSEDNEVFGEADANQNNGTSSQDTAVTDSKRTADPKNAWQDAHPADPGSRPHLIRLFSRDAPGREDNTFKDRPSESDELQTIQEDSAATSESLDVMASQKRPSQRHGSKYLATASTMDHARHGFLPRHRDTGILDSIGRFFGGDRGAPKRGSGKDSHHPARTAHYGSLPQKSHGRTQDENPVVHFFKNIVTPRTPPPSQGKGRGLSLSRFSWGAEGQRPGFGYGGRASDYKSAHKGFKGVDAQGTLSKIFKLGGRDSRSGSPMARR
UniProt P60510: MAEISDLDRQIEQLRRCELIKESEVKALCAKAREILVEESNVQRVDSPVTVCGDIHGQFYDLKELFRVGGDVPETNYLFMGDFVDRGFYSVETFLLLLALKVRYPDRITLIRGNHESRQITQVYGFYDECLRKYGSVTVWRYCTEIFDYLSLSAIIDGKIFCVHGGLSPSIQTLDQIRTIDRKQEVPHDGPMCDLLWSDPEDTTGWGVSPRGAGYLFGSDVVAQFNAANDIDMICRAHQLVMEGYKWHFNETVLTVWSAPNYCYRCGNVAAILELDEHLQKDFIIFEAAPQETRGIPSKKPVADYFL
UniProt P49848, whole entry: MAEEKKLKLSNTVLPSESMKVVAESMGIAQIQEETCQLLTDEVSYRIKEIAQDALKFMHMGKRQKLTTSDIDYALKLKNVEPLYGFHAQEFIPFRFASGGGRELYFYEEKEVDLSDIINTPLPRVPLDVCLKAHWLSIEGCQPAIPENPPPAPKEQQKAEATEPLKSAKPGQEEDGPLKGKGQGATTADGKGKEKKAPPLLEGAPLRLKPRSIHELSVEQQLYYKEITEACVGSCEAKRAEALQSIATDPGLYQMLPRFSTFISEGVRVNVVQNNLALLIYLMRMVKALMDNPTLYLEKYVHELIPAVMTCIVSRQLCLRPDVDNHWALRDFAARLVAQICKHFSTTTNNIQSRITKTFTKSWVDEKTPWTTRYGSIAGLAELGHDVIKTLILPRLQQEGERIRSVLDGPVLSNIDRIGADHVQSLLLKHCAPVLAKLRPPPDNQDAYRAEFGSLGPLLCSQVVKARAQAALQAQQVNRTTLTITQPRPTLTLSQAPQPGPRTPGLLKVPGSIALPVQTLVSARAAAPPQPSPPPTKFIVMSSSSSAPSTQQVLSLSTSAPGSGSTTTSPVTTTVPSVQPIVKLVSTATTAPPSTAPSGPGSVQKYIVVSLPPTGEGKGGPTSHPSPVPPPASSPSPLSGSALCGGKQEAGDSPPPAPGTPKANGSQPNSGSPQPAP
UniProt Q9UM00: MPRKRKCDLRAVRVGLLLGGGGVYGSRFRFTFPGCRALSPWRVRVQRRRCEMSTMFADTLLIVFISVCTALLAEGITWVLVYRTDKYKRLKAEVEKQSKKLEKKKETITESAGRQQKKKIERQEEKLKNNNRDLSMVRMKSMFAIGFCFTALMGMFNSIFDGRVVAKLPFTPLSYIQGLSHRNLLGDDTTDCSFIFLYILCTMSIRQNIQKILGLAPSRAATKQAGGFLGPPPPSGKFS
UniProt Q13492: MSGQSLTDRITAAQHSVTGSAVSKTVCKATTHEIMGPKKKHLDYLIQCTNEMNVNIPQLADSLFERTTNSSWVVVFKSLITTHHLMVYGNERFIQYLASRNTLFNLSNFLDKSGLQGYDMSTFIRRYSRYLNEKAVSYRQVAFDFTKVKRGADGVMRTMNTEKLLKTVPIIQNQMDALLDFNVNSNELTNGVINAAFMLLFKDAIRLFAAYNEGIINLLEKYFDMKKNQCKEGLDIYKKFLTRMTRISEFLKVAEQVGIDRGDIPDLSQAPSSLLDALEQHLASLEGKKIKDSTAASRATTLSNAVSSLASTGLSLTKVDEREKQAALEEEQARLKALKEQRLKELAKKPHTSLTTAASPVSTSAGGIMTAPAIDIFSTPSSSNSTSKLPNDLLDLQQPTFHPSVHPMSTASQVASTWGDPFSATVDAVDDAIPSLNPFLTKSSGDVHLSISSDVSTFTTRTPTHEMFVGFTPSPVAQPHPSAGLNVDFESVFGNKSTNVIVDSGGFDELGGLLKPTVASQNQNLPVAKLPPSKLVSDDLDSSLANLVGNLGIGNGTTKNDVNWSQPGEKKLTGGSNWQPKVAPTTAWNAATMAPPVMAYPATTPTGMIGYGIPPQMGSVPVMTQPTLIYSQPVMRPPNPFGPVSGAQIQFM
UniProt Q9Y5A7: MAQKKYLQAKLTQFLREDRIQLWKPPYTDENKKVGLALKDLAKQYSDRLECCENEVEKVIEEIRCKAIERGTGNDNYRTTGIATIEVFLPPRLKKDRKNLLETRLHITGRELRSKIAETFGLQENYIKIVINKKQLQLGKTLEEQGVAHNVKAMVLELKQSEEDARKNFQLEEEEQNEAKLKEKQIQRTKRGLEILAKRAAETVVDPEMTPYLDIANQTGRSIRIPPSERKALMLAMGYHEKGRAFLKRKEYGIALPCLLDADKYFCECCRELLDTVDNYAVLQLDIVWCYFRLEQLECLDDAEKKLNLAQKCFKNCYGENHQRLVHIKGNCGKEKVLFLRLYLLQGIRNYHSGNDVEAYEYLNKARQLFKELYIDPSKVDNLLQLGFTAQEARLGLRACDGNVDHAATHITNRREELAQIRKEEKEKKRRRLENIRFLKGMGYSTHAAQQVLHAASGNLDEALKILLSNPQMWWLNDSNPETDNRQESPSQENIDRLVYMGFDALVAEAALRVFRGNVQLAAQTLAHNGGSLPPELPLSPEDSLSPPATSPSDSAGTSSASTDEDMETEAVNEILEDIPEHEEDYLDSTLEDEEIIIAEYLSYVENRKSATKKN
UniProt Q9UJV9: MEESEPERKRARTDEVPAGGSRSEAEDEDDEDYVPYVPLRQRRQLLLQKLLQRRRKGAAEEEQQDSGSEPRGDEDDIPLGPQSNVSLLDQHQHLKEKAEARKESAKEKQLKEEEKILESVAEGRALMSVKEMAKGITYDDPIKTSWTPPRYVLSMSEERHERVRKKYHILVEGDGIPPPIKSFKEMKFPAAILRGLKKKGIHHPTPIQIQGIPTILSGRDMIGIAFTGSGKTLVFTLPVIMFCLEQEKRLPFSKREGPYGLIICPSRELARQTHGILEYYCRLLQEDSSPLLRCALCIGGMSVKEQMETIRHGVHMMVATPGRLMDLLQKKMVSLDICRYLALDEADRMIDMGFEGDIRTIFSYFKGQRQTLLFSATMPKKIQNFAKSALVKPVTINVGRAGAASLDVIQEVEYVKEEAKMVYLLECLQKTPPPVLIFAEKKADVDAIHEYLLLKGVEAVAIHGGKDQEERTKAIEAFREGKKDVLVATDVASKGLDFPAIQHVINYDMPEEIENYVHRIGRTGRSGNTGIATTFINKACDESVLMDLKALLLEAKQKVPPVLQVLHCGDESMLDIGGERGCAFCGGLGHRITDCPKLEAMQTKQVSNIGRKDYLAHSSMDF
UniProt Q9BUK0: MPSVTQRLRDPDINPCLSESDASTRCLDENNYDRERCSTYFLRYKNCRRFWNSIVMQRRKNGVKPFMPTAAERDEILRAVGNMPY
UniProt P52429: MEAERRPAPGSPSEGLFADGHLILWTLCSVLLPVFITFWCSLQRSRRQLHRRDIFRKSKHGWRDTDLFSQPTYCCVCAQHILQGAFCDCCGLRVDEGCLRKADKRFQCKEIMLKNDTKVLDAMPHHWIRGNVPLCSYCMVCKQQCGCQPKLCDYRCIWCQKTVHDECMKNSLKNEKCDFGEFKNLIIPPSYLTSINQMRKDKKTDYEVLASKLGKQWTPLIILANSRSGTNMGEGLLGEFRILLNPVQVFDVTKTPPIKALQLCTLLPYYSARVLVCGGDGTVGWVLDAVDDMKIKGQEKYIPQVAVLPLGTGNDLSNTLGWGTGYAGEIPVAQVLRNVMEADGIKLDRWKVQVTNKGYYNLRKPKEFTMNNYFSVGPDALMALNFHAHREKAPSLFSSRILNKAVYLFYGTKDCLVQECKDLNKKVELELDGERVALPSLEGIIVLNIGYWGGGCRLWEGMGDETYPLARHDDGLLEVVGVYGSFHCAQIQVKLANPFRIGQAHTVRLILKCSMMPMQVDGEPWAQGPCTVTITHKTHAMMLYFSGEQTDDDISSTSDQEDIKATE
UniProt P17844: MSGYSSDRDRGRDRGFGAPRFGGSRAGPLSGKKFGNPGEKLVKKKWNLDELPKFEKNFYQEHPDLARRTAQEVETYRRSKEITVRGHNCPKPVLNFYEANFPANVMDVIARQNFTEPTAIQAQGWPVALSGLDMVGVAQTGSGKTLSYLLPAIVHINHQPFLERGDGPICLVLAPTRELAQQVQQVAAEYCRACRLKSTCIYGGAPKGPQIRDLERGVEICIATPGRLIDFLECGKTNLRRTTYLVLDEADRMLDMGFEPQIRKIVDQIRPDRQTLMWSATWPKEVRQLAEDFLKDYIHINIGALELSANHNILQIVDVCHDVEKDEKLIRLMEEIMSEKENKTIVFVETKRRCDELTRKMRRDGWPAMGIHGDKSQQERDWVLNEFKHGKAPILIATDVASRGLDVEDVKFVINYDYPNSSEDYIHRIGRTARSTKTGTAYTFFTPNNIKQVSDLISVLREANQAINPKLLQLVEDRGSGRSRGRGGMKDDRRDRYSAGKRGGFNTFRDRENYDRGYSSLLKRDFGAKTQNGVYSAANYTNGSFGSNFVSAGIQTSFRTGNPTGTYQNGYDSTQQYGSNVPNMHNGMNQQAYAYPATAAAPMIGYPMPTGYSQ
UniProt Q08431: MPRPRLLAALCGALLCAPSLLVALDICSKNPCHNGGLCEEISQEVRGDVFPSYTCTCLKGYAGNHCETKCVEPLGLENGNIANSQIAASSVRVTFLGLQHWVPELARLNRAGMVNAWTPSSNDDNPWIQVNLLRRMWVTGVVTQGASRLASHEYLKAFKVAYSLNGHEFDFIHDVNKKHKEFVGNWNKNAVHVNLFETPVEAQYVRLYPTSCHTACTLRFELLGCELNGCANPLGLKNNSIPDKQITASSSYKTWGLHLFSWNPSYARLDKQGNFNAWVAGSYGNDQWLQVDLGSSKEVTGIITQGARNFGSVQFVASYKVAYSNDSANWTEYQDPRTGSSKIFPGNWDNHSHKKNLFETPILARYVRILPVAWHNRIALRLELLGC
UniProt Q01469, whole entry: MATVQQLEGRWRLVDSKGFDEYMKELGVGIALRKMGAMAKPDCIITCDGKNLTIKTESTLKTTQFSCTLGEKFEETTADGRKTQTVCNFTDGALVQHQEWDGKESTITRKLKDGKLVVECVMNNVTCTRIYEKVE
UniProt Q13569: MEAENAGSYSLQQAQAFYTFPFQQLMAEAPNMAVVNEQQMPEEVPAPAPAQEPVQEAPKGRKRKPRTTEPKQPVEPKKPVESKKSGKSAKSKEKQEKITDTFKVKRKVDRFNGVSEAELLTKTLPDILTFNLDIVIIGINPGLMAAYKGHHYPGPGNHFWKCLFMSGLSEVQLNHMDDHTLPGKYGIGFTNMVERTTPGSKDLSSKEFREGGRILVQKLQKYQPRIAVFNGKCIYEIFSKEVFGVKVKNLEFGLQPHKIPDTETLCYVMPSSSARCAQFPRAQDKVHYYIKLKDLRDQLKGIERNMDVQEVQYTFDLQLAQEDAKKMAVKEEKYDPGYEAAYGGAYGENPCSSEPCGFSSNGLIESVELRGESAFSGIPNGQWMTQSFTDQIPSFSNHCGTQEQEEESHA

Target	NP40-soluble protein abundance (concentration: 1mM)	NP40-soluble protein abundance (concentration: 2mM)	NP40-soluble protein abundance (concentration: 4mM)	NP40-soluble protein abundance (concentration: 6mM)	NP40-soluble protein abundance (concentration: 8mM)	NP40-soluble protein abundance (concentration: 10mM)
H3BP13 and related entries (UniProt Q9UL33)	0.975 ± 0.037	0.965 ± 0.049	0.995 ± 0.018	1.02 ± 0.065	1.02 ± 0.048	1.01 ± 0.042
J3QR77 and related entries (UniProt Q15762)	0.967 ± 0.015	0.976 ± 0.016	0.9985 ± 0.0029	0.974 ± 0.053	1.01 ± 0.019	0.989 ± 0.014
I3L2M1 and related entries (UniProt Q8WYJ6)	1.04 ± 0.032	1.01 ± 0.022	1.04 ± 0.012	0.9903 ± 0.0048	0.9907 ± 0.001	0.994 ± 0.013
G3V532 and related entries (UniProt O75843)	0.964 ± 0.056	0.958 ± 0.0084	0.947 ± 0.05	0.928 ± 0.046	0.927 ± 0.068	0.901 ± 0.045
H0YNG3 and related entries (UniProt P67812)	0.988 ± 0.054	0.957 ± 0.057	0.978 ± 0.042	0.944 ± 0.026	0.965 ± 0.022	0.986 ± 0.068
I3L3Q7 and related entries (UniProt Q07021)	0.766 ± 0.17	0.996 ± 0.18	0.842 ± 0.29	0.94 ± 0.29	0.883 ± 0.043	0.818 ± 0.18
J3KS94 and related entries (UniProt P02686)	0.968 ± 0.054	0.993 ± 0.035	0.96 ± 0.03	0.928 ± 0.033	0.896 ± 0.013	0.903 ± 0.029
UniProt I3L0E3	1.02 ± 0.046	0.983 ± 0.096	0.972 ± 0.063	0.963 ± 0.084	0.938 ± 0.12	0.956 ± 0.13
H3BTA2 and related entries (UniProt P60510)	0.955 ± 0.058	0.867 ± 0.097	0.9368 ± 0.0039	0.896 ± 0.038	0.922 ± 0.013	0.869 ± 0.053
H0Y9Z5 and related entries (UniProt Q96LI5)	0.9588 ± 0.0024	0.9201 ± 0.0062	0.95702 ± 0.00066	0.976 ± 0.055	0.972 ± 0.069	0.961 ± 0.029
J3KR72 and related entries (UniProt P49848)	1.04 ± 0.052	1.07 ± 0.019	1.05 ± 0.035	1.07 ± 0.097	1.08 ± 0.098	1.13 ± 0.096
J9JIE6 and related entries (UniProt Q9UM00)	1 ± 0.034	1.03 ± 0.029	1.03 ± 0.031	1.05 ± 0.039	1.06 ± 0.028	1.09 ± 0.051
H0YEH1 and related entries (UniProt Q13492)	1.01 ± 0.03	1.02 ± 0.061	1.048 ± 0.008	1.06 ± 0.065	1.09 ± 0.049	1.12 ± 0.021
H3BPJ9 and related entries (UniProt O96000)	0.93 ± 0.047	1.01 ± 0.029	0.915 ± 0.042	0.882 ± 0.027	0.884 ± 0.028	0.853 ± 0.032
H3BM14 and related entries (UniProt Q9Y5A7)	0.985 ± 0.013	0.993 ± 0.012	0.986 ± 0.03	1.01 ± 0.024	0.98 ± 0.025	0.989 ± 0.028
H7C0G7 and related entries (UniProt Q9H9Q4)	1.05 ± 0.041	1.09 ± 0.05	1.05 ± 0.042	1.04 ± 0.053	1.08 ± 0.057	1.05 ± 0.045
H0YIS7 and related entries (UniProt Q8IXM2+H0YIS7)	0.967 ± 0.029	1 ± 0.025	0.944 ± 0.043	1 ± 0.017	0.9583 ± 0.0013	1 ± 0.073
H3BQW8 and related entries (UniProt Q16775)	1.01 ± 0.047	0.97 ± 0.054	1.02 ± 0.071	1.04 ± 0.069	1.04 ± 0.073	1.08 ± 0.13
J3KNN5 and related entries (UniProt Q9UJV9)	1.11 ± 0.029	1.1 ± 0.043	1.13 ± 0.073	1.12 ± 0.035	1.15 ± 0.053	1.22 ± 0.065
J3KPV1 and related entries (UniProt Q9BUK0)	0.98 ± 0.03	1.01 ± 0.017	0.96 ± 0.025	0.985 ± 0.026	0.95 ± 0.022	0.962 ± 0.024
J3KS22 and related entries (UniProt Q7Z4W1)	0.994 ± 0.046	0.944 ± 0.013	1.01 ± 0.062	1.09 ± 0.12	1.08 ± 0.081	1.08 ± 0.078
H3BUV4 and related entries (UniProt Q9NWW5)	1.03 ± 0.015	0.939 ± 0.13	1 ± 0.027	1.03 ± 0.011	1.05 ± 0.016	1.03 ± 0.07
I3L112 and related entries (UniProt P52429)	1.01 ± 0.041	0.963 ± 0.064	1.03 ± 0.021	0.973 ± 0.021	1.014 ± 0.0051	0.99 ± 0.02
J3KTA4 and related entries (UniProt P17844)	1.03 ± 0.038	0.958 ± 0.15	1 ± 0.066	0.995 ± 0.14	1 ± 0.1	0.975 ± 0.13
H0YKS8 and related entries (UniProt Q08431)	1.0241 ± 0.0004	0.981 ± 0.033	1.038 ± 0.0015	1.02 ± 0.028	0.994 ± 0.034	1.02 ± 0.077
G5E9Z2 and related entries (UniProt Q96KA5)	1.02 ± 0.045	0.9986 ± 0.0074	1 ± 0.033	1.02 ± 0.039	1.01 ± 0.049	1.03 ± 0.046
H3BSH7 and related entries (UniProt Q969X6)	1.02 ± 0.015	0.982 ± 0.059	1.048 ± 0.0087	1.03 ± 0.055	1.1 ± 0.035	1.08 ± 0.037
I6L8B7 and related entries (UniProt Q01469)	1.04 ± 0.047	1.02 ± 0.011	1.02 ± 0.011	1.11 ± 0.07	1.1 ± 0.092	1.09 ± 0.079
K7EIU8 and related entries (UniProt Q13485)	0.986 ± 0.065	0.936 ± 0.062	0.99 ± 0.091	1.04 ± 0.084	1.08 ± 0.08	1.03 ± 0.093
G8JL98 and related entries (UniProt Q13569)	0.978 ± 0.029	0.9627 ± 0.0029	0.944 ± 0.023	0.957 ± 0.041	0.941 ± 0.0098	0.9457 ± 0.0067

Two entries from above, set out differently:
H0YEH1 and related entries (UniProt Q13492)
  NP40-soluble protein abundance (concentration: 1mM): 1.01 ± 0.03
  NP40-soluble protein abundance (concentration: 2mM): 1.02 ± 0.061
  NP40-soluble protein abundance (concentration: 4mM): 1.048 ± 0.008
  NP40-soluble protein abundance (concentration: 6mM): 1.06 ± 0.065
  NP40-soluble protein abundance (concentration: 8mM): 1.09 ± 0.049
  NP40-soluble protein abundance (concentration: 10mM): 1.12 ± 0.021
H3BPJ9 and related entries (UniProt O96000)
  NP40-soluble protein abundance (concentration: 1mM): 0.93 ± 0.047
  NP40-soluble protein abundance (concentration: 2mM): 1.01 ± 0.029
  NP40-soluble protein abundance (concentration: 4mM): 0.915 ± 0.042
  NP40-soluble protein abundance (concentration: 6mM): 0.882 ± 0.027
  NP40-soluble protein abundance (concentration: 8mM): 0.884 ± 0.028
  NP40-soluble protein abundance (concentration: 10mM): 0.853 ± 0.032
